In paper PMC11251186, “Higher-order structure and proteoforms of co-occurring C4b-binding protein assemblies in human serum” (The EMBO Journal, 2024):
Results are given in words; binding and its absence hold for the method and conditions named.

T1: vitamin K-dependent protein S (ProS) (human), P07225
T1 chain: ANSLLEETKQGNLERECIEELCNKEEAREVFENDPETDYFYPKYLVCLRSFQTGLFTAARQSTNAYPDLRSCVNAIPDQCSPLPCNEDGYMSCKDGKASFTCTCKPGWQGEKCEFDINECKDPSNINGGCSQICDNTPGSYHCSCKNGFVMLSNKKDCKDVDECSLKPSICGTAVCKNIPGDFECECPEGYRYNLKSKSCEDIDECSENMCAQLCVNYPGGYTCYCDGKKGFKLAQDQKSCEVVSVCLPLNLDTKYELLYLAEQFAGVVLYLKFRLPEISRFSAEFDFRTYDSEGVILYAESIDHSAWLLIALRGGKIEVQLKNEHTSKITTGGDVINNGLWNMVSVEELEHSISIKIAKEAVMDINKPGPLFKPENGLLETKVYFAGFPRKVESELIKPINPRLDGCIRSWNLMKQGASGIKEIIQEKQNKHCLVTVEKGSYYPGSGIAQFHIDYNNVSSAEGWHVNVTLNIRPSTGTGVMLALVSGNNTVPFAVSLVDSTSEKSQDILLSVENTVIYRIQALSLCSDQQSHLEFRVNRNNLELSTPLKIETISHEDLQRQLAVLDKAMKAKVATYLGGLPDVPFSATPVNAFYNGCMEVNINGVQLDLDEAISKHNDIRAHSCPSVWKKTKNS

T2: vitamin K-dependent protein S (ProS) (human, UniProt P07225 42-676, N-glycans at N499, N509, N530)
T2 construct: vitamin K-dependent protein S (ProS), human serum protein; GLA domain, four EGF-like domains (E1-E4), two laminin G-like domains (LG1-2); without signal peptide and propeptide; source: purified from pooled plasma of more than 16 healthy donors together with C4BP (bought: Complement Technology, Inc); endogenous, pooled healthy donor serum (SEC LC-MS)
T2 sequence (looked up): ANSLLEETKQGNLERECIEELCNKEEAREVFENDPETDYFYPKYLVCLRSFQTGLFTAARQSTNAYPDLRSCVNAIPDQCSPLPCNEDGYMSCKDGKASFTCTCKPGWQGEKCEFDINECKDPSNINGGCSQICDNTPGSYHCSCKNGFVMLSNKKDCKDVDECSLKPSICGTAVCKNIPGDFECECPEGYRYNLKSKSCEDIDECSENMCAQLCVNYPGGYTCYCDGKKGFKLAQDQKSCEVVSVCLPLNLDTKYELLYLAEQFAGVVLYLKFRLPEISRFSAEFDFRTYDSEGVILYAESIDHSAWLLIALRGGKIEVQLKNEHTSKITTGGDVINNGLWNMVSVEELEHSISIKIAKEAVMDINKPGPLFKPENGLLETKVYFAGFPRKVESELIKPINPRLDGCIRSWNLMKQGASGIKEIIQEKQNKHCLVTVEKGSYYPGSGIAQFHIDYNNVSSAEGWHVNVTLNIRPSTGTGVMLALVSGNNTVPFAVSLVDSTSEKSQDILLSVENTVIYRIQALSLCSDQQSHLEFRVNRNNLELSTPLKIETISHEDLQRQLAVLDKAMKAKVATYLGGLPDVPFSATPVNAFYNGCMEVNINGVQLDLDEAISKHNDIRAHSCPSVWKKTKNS


Key:
[1] = target: T1, vitamin K-dependent protein S (ProS) …; experiment: mass photometry; native C4BP, 16 nM in PBS pH 7.4; both purified; details: remark: other sources report otherwise
[2] = target: T1, vitamin K-dependent protein S (ProS) …; experiment: SEC; SEC LC-MS of pooled healthy donor serum in triplicate (dataset of Doorduijn et al, 2022, examined here); iBAQ of each chain per fraction; details: remark: other sources report otherwise
[3] = target: T2, vitamin K-dependent protein S (ProS); experiment: native MS; Orbitrap charge detection MS (CDMS) of acidified (denatured) C4BP, formic acid added (pH ~2); disulfide bonds preserved; both purified
[4] = target: T2, vitamin K-dependent protein S (ProS); experiment: mass photometry; acidified (denatured) C4BP, 16 nM in PBS adjusted to pH 2 with formic acid; both purified

| binding [1] | binding [2] | Binder | binding [3] | binding [4] |
| --- | --- | --- | --- | --- |
| no binding | no binding | vitamin K-dependent protein S (ProS), P07225 42-676 (protein, here or on the partner: N-glycans at N499, N509, N530; N-glycans at N499, N509, N530) ANSLLEETKQGNLERECIEELCNKEEAREVFENDPETDYFYPKYLVCLRSFQTGLFTAARQSTNAYPDLRSCVNAIPDQCSPLPCNEDGYMSCKDGKASFTCTCKPGWQGEKCEFDINECKDPSNINGGCSQICDNTPGSYHCSCKNGFVMLSNKKDCKDVDECSLKPSICGTAVCKNIPGDFECECPEGYRYNLKSKSCEDIDECSENMCAQLCVNYPGGYTCYCDGKKGFKLAQDQKSCEVVSVCLPLNLDTKYELLYLAEQFAGVVLYLKFRLPEISRFSAEFDFRTYDSEGVILYAESIDHSAWLLIALRGGKIEVQLKNEHTSKITTGGDVINNGLWNMVSVEELEHSISIKIAKEAVMDINKPGPLFKPENGLLETKVYFAGFPRKVESELIKPINPRLDGCIRSWNLMKQGASGIKEIIQEKQNKHCLVTVEKGSYYPGSGIAQFHIDYNNVSSAEGWHVNVTLNIRPSTGTGVMLALVSGNNTVPFAVSLVDSTSEKSQDILLSVENTVIYRIQALSLCSDQQSHLEFRVNRNNLELSTPLKIETISHEDLQRQLAVLDKAMKAKVATYLGGLPDVPFSATPVNAFYNGCMEVNINGVQLDLDEAISKHNDIRAHSCPSVWKKTKNS | – | – |
| – | – | vitamin K-dependent protein S (ProS) (protein, N-glycans at N499, N509, N530) ANSLLEETKQGNLERECIEELCNKEEAREVFENDPETDYFYPKYLVCLRSFQTGLFTAARQSTNAYPDLRSCVNAIPDQCSPLPCNEDGYMSCKDGKASFTCTCKPGWQGEKCEFDINECKDPSNINGGCSQICDNTPGSYHCSCKNGFVMLSNKKDCKDVDECSLKPSICGTAVCKNIPGDFECECPEGYRYNLKSKSCEDIDECSENMCAQLCVNYPGGYTCYCDGKKGFKLAQDQKSCEVVSVCLPLNLDTKYELLYLAEQFAGVVLYLKFRLPEISRFSAEFDFRTYDSEGVILYAESIDHSAWLLIALRGGKIEVQLKNEHTSKITTGGDVINNGLWNMVSVEELEHSISIKIAKEAVMDINKPGPLFKPENGLLETKVYFAGFPRKVESELIKPINPRLDGCIRSWNLMKQGASGIKEIIQEKQNKHCLVTVEKGSYYPGSGIAQFHIDYNNVSSAEGWHVNVTLNIRPSTGTGVMLALVSGNNTVPFAVSLVDSTSEKSQDILLSVENTVIYRIQALSLCSDQQSHLEFRVNRNNLELSTPLKIETISHEDLQRQLAVLDKAMKAKVATYLGGLPDVPFSATPVNAFYNGCMEVNINGVQLDLDEAISKHNDIRAHSCPSVWKKTKNS | no binding (condition: acidified with formic acid (pH ~2)) | no binding (condition: acidified with formic acid (pH 2)) |
